Article PMC12052135
No constants are given. Whether binding was seen depends on the method and setting. Binding seen in cells or lysates may run through a third protein. Some binding calls cover weakened binding; strength is not graded here. Sequences can lack the tags named with a protein.

By UniProt entry, the sequences of proteins in these tests, tags left out. Residues count along the entry.
UniProt Q63524, residues 21-201: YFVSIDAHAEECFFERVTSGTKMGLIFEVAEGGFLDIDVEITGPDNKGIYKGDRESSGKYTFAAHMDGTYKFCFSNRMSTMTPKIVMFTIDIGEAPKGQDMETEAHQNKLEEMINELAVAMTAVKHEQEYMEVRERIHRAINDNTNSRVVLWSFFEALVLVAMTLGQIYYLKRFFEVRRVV

T1: GFP-CD59 (C94S) (UniProt P13987)
T1 sequence: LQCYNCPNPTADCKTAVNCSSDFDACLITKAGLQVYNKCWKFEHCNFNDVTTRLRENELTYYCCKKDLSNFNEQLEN


Target: T1, GFP-CD59 (C94S)
Assay: co-IP

Molecule	binding
TMED2 (from UniProt Q63524 21-201)	binds
TMED9 (protein, UniProt Q5I0E7 38-235, N-linked glycosylation (LMW and sialylated HMW forms)) LYFHIGETEKKCFIEEIPDETMVIGNYRTQLYDKQREEYQPATPGLGMFVEVKDPEDKVILARQYGSEGRFTFTSHTPGEHQICLHSNSTKFSLFAGGMLRVHLDIQVGEHANDYAEIAAKDKLSELQLRVRQLVEQVEQIQKEQNYQRWREERFRQTSESTNQRVLWWSILQTLILVAIGVWQMRHLKSFFEAKKLV	binds
calnexin (protein, UniProt P35565 21-591) HDGHDDDMIDIEDDLDDVIEEVEDSKSKSDTSTPPSPKVTYKAPVPTGEVYFADSFDRGSLSGWILSKAKKDDTDDEIAKYDGKWEVDEMKETKLPGDKGLVLMSRAKHHAISAKLNKPFLFDTKPLIVQYEVNFQNGIECGGAYVKLLSKTSELNLDQFHDKTPYTIMFGPDKCGEDYKLHFIFRHKNPKTGVYEEKHAKRPDADLKTYFTDKKTHLYTLILNPDNSFEILVDQSVVNSGNLLNDMTPPVNPSREIEDPEDRKPEDWDERPKIADPDAVKPDDWDEDAPSKIPDEEATKPEGWLDDEPEYIPDPDAEKPEDWDEDMDGEWEAPQIANPKCESAPGCGVWQRPMIDNPNYKGKWKPPMIDNPNYQGIWKPRKIPNPDFFEDLEPFRMTPFSAIGLELWSMTSDIFFDNFIISGDRRVVDDWANDGWGLKKAADGAAEPGVVGQMLEAAEERPWLWVVYILTVALPVFLVILFCCSGKKQSNAMEYKKTDAPQPDVKDEEGKEEEKNKGDEEEEEEKLEEKQKSDAEEDGGTGSQDEEDSKPKAEEDEILNRSPRNRKPRRE	binds
TMP21 (protein, UniProt Q63584 32-219) ISFHLPVNSRKCLREEIHKDLLVTGAYEITDQSGGAGGLRTHLKITDSAGHILYAKEDATKGKFAFTTEDYDMFEVCFESKGTGRIPDQLVILDMKHGVEAKNYEEIAKVEKLKPLEVELRRLEDLSESIVNDFAYMKKREEEMRDTNESTNTRVLYFSIFSMFCLIGLATWQVFYLRRFFKAKKLIE	binds
